# From patent US20120283421A1
# Results are given in words; binding and its absence hold for the method and conditions named. Some results given as binding are weak or reduced against the parent protein; the word gives no strength.
# B1: Ara h 1 (purified from peanut) (protein)
# chain: KSSPYQKKTENPCAQRCLQSCQQEPDDLKQKACESRCTKLEYDPRCVYDPRGHTGTTNQRSPPGERTRGRQPGDYDDDRRQPRREEGGRWGPAGPREREREEDWRQPREDWRRPSHQQPRKIRPEGREGEQEWGTPGSHVREETSRNNPFYFPSRRFSTRYGNQNGRIRVLQRFDQRSRQFQNLQNHRIVQIEAKPNTLVLPKHADADNILVIQQGQATVTVANGNNRKSFNLDEGHALRIPSGFISYILNRHDNQNLRVAKISMPVNTPGQFEDFFPASSRDQSSYLQGFSRNTLEAAFNAEFNEIRRVLLEENAGGEQEERGQRRWSTRSSENNEGVIVKVSKEHVEELTKHAKSVSKKGSEEEGDITNPINLREGEPDLSNNFGKLFEVKPDKKNPQLQDLDMMLTCVEIKEGALMLPHFNSKAMVIVVVNKGTGNLELVAVRKEQQQRGRREEEEDEDEEEEGSNREVRRYTARLKEGDVFIMPAAHPVAINASSELHLLGFGINAENNHRIFLAGDKDNVIDQIEKQAKDLAFPGSGEQVEKLIKNQKESHFVSARPQSQSQSPSSPEKESPEKEDQEEENQGGKGPLLSILKAFN
# modifications: glycoprotein (PAS positive); fluorescein-labelled tracer in Example 6
# Target: Ara h 1 (purified from peanut) (Arachis hypogaea) (UniProt P43238)
# Test: fluorescence polarization; DSP cross-linking gives a complex of about 180 kd (trimer)
binder,measurement,value
B1,binding,binds
